According to publication PMC9458062, “^131I-C19 Iodide Radioisotope and Synthetic I-C19 Compounds as K-Ras4B–PDE6δ Inhibitors: A Novel Approach against Colorectal Cancer—Biological Characterization, Biokinetics and Dosimetry” (Molecules, 2022):

Assays:
[1] = tested on: HCT116; test: Cell uptake, internalization and radiation absorbed dose to the nucleus; type: cell-based, human
Procedure: The HCT116, LoVo and SW620 cells were seeded in 48-well tissue culture plates at a density of 10^5 cells/well. After 24 h, the cells were exposed to 1.44 Bq/cell of ^131I-C19 (200 μL) at 37 °C for 1, 3 and 5 h. After treatment, two washes (1 mL of ice-cold PBS) were performed. For the calculation of the cell uptake, the cells in each well were treated (at room temperature for 5 min) with 500 μL of glycine buffer (50 mM, pH 2.8). Then, this fraction was removed, and the radioactivity was measured in a NaI (Tl) detector (BCL, San Rafael CA, USA). To evaluate the ^131I-C19 internalization, the cells were incubated with 1 mL of NaOH 0.3 M (at room temperature for 10 min). Once more, the radioactivity was measured in a NaI (Tl) detector (BCL, San Rafael CA, USA). A 100% standard solution (200 μL) of ^131I-C19 was also measured (n = 5). The uptake (%) (plasmatic membrane) and internalization (%) (cytoplasm) were used to obtain the radiation absorbed dose. […]

[2] = Radiation absorbed dose estimation for organs and tumor; type: in vivo, Nu/Nu mice with LoVo xenograft tumors; details: for Absorbed Dose / Total Nuclear Transformation N: 5 MBq intraperitoneal

With `COc1ccc(CNC(C)C(=O)Nc2cc([131I])ccc2[131I])cc1OC` (centres unmarked) [^131I-C19] the “Cytoplasm Total Nuclear Transformations” value ([1]; HCT116) was 47 Bq^.s, the “Absorbed Dose DN←Cy” value ([1]; HCT116, cytoplasm to nucleus) was 0.01 Gy and the “Absorbed Dose” value ([2]; Colon (Large intestine)) was 0.14 Gy. The “Total Nuclear Transformation N” value ([2]; Colon (Large intestine)) was 504 MBq.s, the “Absorbed Dose” value ([2]; Kidney) was 0.12 Gy and the “Total Nuclear Transformation N” value ([2]; Kidney) was 1796 MBq.s. The “Absorbed Dose” value ([2]; Liver) was 0.34 Gy, the “Total Nuclear Transformation N” value ([2]; Liver) was 3816 MBq.s and the “Absorbed Dose” value ([2]; Lung) was 0.40 Gy. The “Total Nuclear Transformation N” value ([2]; Lung) was 421 MBq.s, the “Absorbed Dose” value ([2]; Pancreas) was 0.18 Gy and the “Total Nuclear Transformation N” value ([2]; Pancreas) was 399 MBq.s. For the same molecule, the “Absorbed Dose” value ([2]; Spleen) was 0.19 Gy, the “Total Nuclear Transformation N” value ([2]; Spleen) was 151 MBq.s and the “Absorbed Dose” value ([2]; Tumor (LoVo)) was 3.55 Gy. The “Total Nuclear Transformation N” value ([2]; Tumor) was 7020 MBq.s and the “radiation absorbed dose to the tumor, extrapolated” value ([2]; Tumor, administration of 74 MBq (2 mCi)) was 52 Gy/74 MBq.
